Reference: publication PMC12670160, “A drug-repurposing screen of FDA- and EMA-approved drugs identifies two NF-κB inhibitors active against eumycetoma” (Journal of Antimicrobial Chemotherapy, 2025)
Structures can show the parent of a compound that is named as a salt. The campaign covered roughly 5,300 compounds. About 130 (2.5%) showed an effect of 50% or more. This is one part of the list.

The compounds below were run on M. mycetomatis strain mm55. Conditions: primary screen, metabolic activity vs growth control; 96 h, 2 µM; inhibitor.

SMILES | % viability [%]
CC(/C=C1\SC(=S)N(CC(=O)O)C1=O)=C\c1ccccc1 [ONC0002055, epalrestat] | 66.81
CCC(=O)OCN1C(=O)C=CC1=O [ONC0001528, mira1] | 90.28
CCCOc1ccn2c(C(C)=O)cc(-c3ccccc3S(C)(=O)=O)c2c1 [ONC0005288, gsk2801] | 106.2
CCCN(CCC)C1CCc2cccc(O)c2C1 (stereo not shown) [ONC0002624, 8hydroxydpat] | 70.5
N[C@@H]1[C@H]2CN(c3nc4c(cc3F)c(=O)c(C(=O)O)cn4-c3ccc(F)cc3F)C[C@@H]12 [ONC0003479, trovafloxacin mesylate] | 65.94
C[C@H](Nc1cc(NS(=O)(=O)N2CCC2)nc(SCc2cccc(F)c2F)n1)[C@@H](O)CO [ONC0000894, srt3190] | 61.67
COC(=O)CCSCc1ccc(-c2onc(C)c2NC(=O)OC(C)c2ccccc2Cl)cc1 (stereo not shown) [ONC0004532, ki16198] | 70.88
CN1CCN(CCCN2c3ccccc3Sc3ccc(Cl)cc32)CC1 [ONC0000480, prochlorperazine edisylate] | 81.16
CCN(c1ccccc1)c1cc(NC)[n+](C)c(C)n1 [ONC0002628, zd7288] | 84.49
CCCCCCCCCCCCCCCCCCO [ONC0003680, octadecan1ol] | 83.48
COc1ccc(-n2c(SCc3nc(-c4ccc(C)cc4)no3)nnc2-c2ccncc2)cc1 [ONC0002351, jw74] | 61.82
NC1=NCCN1CC(=O)O [ONC0005544, cyclocreatine] | 121.1
CC1(C)O[C@@H]2C[C@H]3[C@@H]4CCC5=CC(=O)C=C[C@]5(C)[C@@]4(F)[C@@H](O)C[C@]3(C)[C@]2(C(=O)CO)O1 [ONC0000530, triamcinolone acetonide] | 72.73
CC1(C)[C@H]2CC[C@@]1(C)[C@H](O)[C@@H]2O [ONC0003634, exoexo23camphanediol] | 67.52
N=C(N)SCc1ccc(B(O)O)cc1 [ONC0001888, bc11] | 64.35
O=C(O)CCCc1ccccc1 [ONC0003306, sodium phenylbutyrate] | 55.47
CN(C)[C@@H]1C(=O)C(C(N)=O)C(=O)[C@@]2(O)C(=O)C3C(=O)c4c(O)cccc4[C@@](C)(O)[C@H]3C[C@@H]12 (stereo partly shown) [ONC0000563, tetracycline hydrochloride] | 113.1
CCOC(=O)C12CC1/C(=N\O)c1ccccc1O2 (stereo not shown) [ONC0001852, cpccoet] | 85.9
O=C(O)COC(=O)Cc1ccccc1Nc1c(Cl)cccc1Cl [ONC0000439, aceclofenac] | 78.86
CC(C)Oc1ccc(C(=O)N[C@H](CNC(=O)CN(C)C)Cc2ccc(-c3cn4cccc([C@H](C)O)c4n3)cc2)cc1Cl [ONC0005504, gsk923295] | 90.87
CCOC(=O)C1=C(C)NC(c2ccccc2)=C(C(=O)OCc2ccc([N+](=O)[O-])cc2)C1C#Cc1ccccc1 (stereo not shown) [ONC0001718, mrs1334] | 82.41

SMILES | % viability [%]
OC1(c2ccc(Cl)c(C(F)(F)F)c2)CCN(CCCC(c2ccc(F)cc2)c2ccc(F)cc2)CC1 [ONC0004118, penfluridol] | 98.09
c1ccc(CN2CCC3(CCc4ccccc43)CC2)cc1 [ONC0002495, l693403] | 125.9
CC(CC(c1ccccc1)c1ccccc1)NC(C)(C)C (stereo not shown) [ONC0005592, terodiline] | 109.9
CCN1CCN(c2cc3c(cc2F)c(=O)c(C(=O)O)cn3C2CC2)CC1 [ONC0002394, enrofloxacin] | 99.08
O=C1C2CC3CC1CC(O)(C3)C2 [ONC0005367, idramantone] | 117.2
FC(F)c1nc2ccccc2n1-c1nc(N2CCOCC2)nc(N2CCOCC2)n1 [ONC0004685, zstk474] | 110.1
CCn1c(N)c(C(=O)NC)c(=O)c2ccc(C#C[C@@](C)(O)COC)nc21 [ONC0005244, sar131675] | 151.7
COc1cc(NS(C)(=O)=O)ccc1Nc1c2ccccc2nc2ccccc12 [ONC0002819, amsacrine] | 122.1
CCN1CCC[C@H]1CNC(=O)c1c(OC)ccc(Br)c1OC [ONC0001453, remoxipride] | 82.81
CC(C)C(C(=O)Nc1nccs1)c1ccc(Cl)cc1 (stereo not shown) [ONC0004465, 4cmtb] | 150.7
NC(=O)CN1C=CCC(C(N)=O)=C1 [ONC0003832, caricotamide] | 57.08
COC(=O)N[C@H](C(=O)N1CCC[C@H]1C(=O)Nc1ccc([C@@H]2CC[C@@H](c3ccc(NC(=O)[C@@H]4CCCN4C(=O)[C@@H](NC(=O)OC)C(C)C)cc3)N2c2ccc(C(C)(C)C)cc2)cc1)C(C)C [ONC0002011, ombitasvir] | 108.9
Cc1nnc(NS(=O)(=O)c2ccc(N)cc2)s1 [ONC0000591, sulfamethizole] | 101.6
N=C(N)S/C=C\C(=O)O [ONC0004454, zapa] | 108.4
COc1ccc(O)c(C(C)(C)C)c1 [ONC0002424, butylated hydroxyanisole] | 103.3
CCCC[C@H](NC(C)=O)C(=O)N[C@H]1CC(=O)NCCCC[C@@H](C(=O)O)NC(=O)[C@H](Cc2c[nH]c3ccccc23)NC(=O)[C@H](CCCN=C(N)N)NC(=O)[C@@H](Cc2ccccc2)NC(=O)[C@H](Cc2cnc[nH]2)NC1=O [ONC0002156, bremelanotide acetate] | 73.73
Cc1cc(NCCO)nc(-c2ccc(Br)cc2)n1 [ONC0001665, as1269574] | 73.35
CC1CC(OC(=O)C(O)c2ccccc2)CC(C)(C)N1C (stereo not shown) [ONC0002943, eucatropine] | 67.69
CCCCc1nc(Cl)c(C(=O)O)n1Cc1ccc(-c2ccccc2-c2nn[nH]n2)cc1 [ONC0003844, carboxylosartan] | 82
C=C1c2cccc(O)c2C(=O)C2C(=O)[C@]3(O)C(=O)C(C(N)=O)C(=O)[C@@H](N(C)C)[C@@H]3[C@@H](O)[C@H]12 (stereo partly shown) [ONC0000687, methacycline hydrochloride] | 124.6
C[C@H]1CN(C[C@H](Cc2ccccc2)C(=O)NCC(=O)O)CC[C@@]1(C)c1cccc(O)c1 [ONC0001300, alvimopan monohydrate] | 69.48

SMILES | % viability [%]
COc1ccccc1S(=O)(=O)Nc1ccc2c(c1)CN(C)C(=O)N2 [ONC0004513, pfi1pf6405761] | 60.81
c1cc2c(cc1C1CCCCC1)c1c3n2CCNC3CCC1 (stereo not shown) [ONC0002712, tetrindole] | 57.5
CC(C)[C@](O)(c1ccc2cc(OC(F)F)c(OC(F)F)cc2c1)c1c[nH]nn1 [ONC0001797, seviteronel] | 82.26
COC1CCN(c2cccc(-c3cc(NC(C)=O)nc(-n4nc(C)cc4C)n3)n2)CC1 [ONC0001757, tcg1004] | 57.51
Cc1cc(Nc2ncnc3ccc(-c4ccc(CNCCS(C)(=O)=O)o4)cc23)ccc1Oc1ccn2ncnc2c1 [ONC0004383, her2 inhibitor 1] | 102.4
CO[C@@]12[C@H](COC(N)=O)C3=C(C(=O)C(C)=C(N)C3=O)N1C[C@@H]1N[C@@H]12 [ONC0003261, mitomycin] | 74.56
CC(C(=O)O)c1ccc(N2Cc3ccccc3C2=O)cc1 (stereo not shown) [ONC0000383, indoprofen] | 86.36
Cc1nc(C#Cc2ccnc(Cl)c2)c(C)n1-c1ccc(F)cc1 [ONC0002088, basimglurant] | 78.59
O=C(c1cn(Cc2cncn2Cc2ccc(Br)cc2)cc1-c1cccc2ccccc12)N1CCOCC1 [ONC0005028, lb42708] | 105.6
CCN1CCN(C(=O)N[C@@H](C(=O)N[C@@H]2C(=O)N3C(C(=O)O)=C(CSc4nnnn4C)CS[C@H]23)c2ccc(O)cc2)C(=O)C1=O [ONC0000570, cefoperazone] | 118.8
CC(C)(Cc1ccc2ccccc2c1)NC[C@@H](O)COc1cccc(Cl)c1C#N [ONC0005073, nps2143 sb262470] | 64.57
CN(C)CCOc1ccc(/C(=C(/CCCl)c2ccccc2)c2ccccc2)cc1 [ONC0004127, toremifene citrate] | 115.5
CCCN(CCC)C(=O)C1=Cc2ccc(-c3ccc(C(=O)N4CCCC4)cc3)cc2N=C(N)C1 [ONC0002257, motolimod] | 108.9
Cc1ccc(Cl)c(Nc2ccccc2C(=O)O)c1Cl [ONC0000446, meclofenamate sodium] | 65.97
C=C1/C(=C\C=C2/CCC[C@]3(C)[C@@H]([C@H](C)/C=C/[C@@H](O)C4CC4)CC[C@@H]23)C[C@@H](O)C[C@@H]1O [ONC0001143, calcipotriol] | 97.63
CNC(=O)[C@H](Cc1c[nH]c2ccccc12)NC(=O)[C@@H](CC(=O)NO)CC(C)C [ONC0005060, ilomastat gm6001 galardin] | 74.22
N=C1NC(=O)N2CC12 (stereo not shown) [ONC0005293, imexon] | 80.33
O=C(NCC(=O)N1CCCCC1)Nc1ccc2nnsc2c1 [ONC0000180, unc2327] | 77.49
Oc1ccc(OCc2ccccc2)cc1 [ONC0002824, monobenzone] | 101.4

Reprinted at random: 3 records from the list.
SMILES | % viability [%]
c1cc2c(cc1C1CCCCC1)c1c3n2CCNC3CCC1 (stereo not shown) [ONC0002712, tetrindole] | 57.5
COc1ccccc1S(=O)(=O)Nc1ccc2c(c1)CN(C)C(=O)N2 [ONC0004513, pfi1pf6405761] | 60.81
CO[C@@]12[C@H](COC(N)=O)C3=C(C(=O)C(C)=C(N)C3=O)N1C[C@@H]1N[C@@H]12 [ONC0003261, mitomycin] | 74.56
